# Measured values reported in EP1705169A2, “Triphenylalkene derivatives and their use as selective estrogen receptor modulators” (priority 1999, dated 2001).
# For at least one compound, name, drawing or mass did not settle the structure.
# Tested on: ovariectomized (OVX) rats
# Assay: Serum cholesterol level in ovariectomized (OVX) rats after 4 weeks dosing
# Format: in vivo, rat
# Text: Compounds were given p.o. to female rats for 4 or 5 weeks daily. At the end a blood sample was taken. Serum was separated by centrifugation and frozen until analyzed for total amount of cholesterol. Bone samples were taken from vertebra and tibia. Physical strength of the bones was studied as described by Peng et al, 1994. The assessments of the bone included: • Ash weight of tibial epiphyses • Epiphyses of one tibia was carefully prepared and burned. Samples were burned to remove water and organic material. Ash weight relates to the mineral content of the bone. In addition, bone samples were taken to study the histomorphometry. In some cases the bone formation was studied by injecting tetracycline (50 mg/kg i.p. 10 days before autopsy) and calcein (20 mg/kg i.p. 3 days before autopsy). The method is based on permanent binding of tetracycline into growing bone and its detection by fluorescence (Peng et al, 1994).
smiles,measurement,value
"C[C@]12CC[C@@H]3c4ccc(O)cc4CC[C@H]3[C@@H]1CC[C@@H]2O [estradiol, reference compound]",Effect on ovariectomy-induced increase of serum cholesterol level (in words),can prevent this increase even at very low dose and decrease the level below the sham operated level
